Literature values in patent US4834982A, “Potassium-neutral salureticum with anti-hypertensive effect” (priority 1987, dated 1989).

Test system: plasma-renin-aldosterone system
Conditions: well known; cited from earlier work

NS(=O)(=O)c1cc(C(=O)O)c(NCc2ccco2)cc1Cl [furosemide]
stimulation of the plasma-renin-aldosterone system: very strongly stimulate
